Measured values as given in patent US20220380319A1 (Bial - R&D Investments, S.A., priority 2019, published 2022).
The match of structure and compound is tentative.

Chains of the proteins cited; added tags and fusions are not shown. Residues count along the entry.
UniProt Q13510, 22-395 limits assumed: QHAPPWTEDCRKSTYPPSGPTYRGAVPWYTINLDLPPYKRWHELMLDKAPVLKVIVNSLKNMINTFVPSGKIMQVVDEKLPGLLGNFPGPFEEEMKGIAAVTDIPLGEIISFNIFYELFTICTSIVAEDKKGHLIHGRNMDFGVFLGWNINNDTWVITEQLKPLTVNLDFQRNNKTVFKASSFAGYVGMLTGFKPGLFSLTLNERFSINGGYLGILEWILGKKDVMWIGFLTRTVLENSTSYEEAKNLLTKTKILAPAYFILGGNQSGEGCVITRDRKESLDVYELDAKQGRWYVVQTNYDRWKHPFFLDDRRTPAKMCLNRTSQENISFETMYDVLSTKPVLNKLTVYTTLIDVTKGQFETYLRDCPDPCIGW

What follows are molecules tested against acid ceramidase (Homo sapiens, UniProt Q13510) (assay: Acid ceramidase inhibition, biochemical fluorescent assay with cell lysates overexpressing acid ceramidase, substrate Rbm14-12). Conditions: read-out: IC50 hACR, substrate Rbm14-12 6.3 μM, pH 4.5.

How did the IC50 turn out when `CN1CC2CCC1CN2c1cccc2c1ncn2C(=O)NCCOc1ccccc1` (stereo not drawn) was run?
Its IC50 is less than 0.2 µM.

How did the IC50 turn out when `N#CCCN1CCN(c2cccc3c2ncn3C(=O)NCCOc2ccccc2)CC1` was run?
The IC50 was less than 0.2 µM.

With `COc1nc2cc(N3CCOCC3)ncc2n1C(=O)NCCCc1ccccc1` as the molecule, how does the IC50 read?
The IC50 was less than 0.2 µM.
